In patent publication US20120270300A1, “PRODUCTION OF RECOMBINANT FACTOR IX IN A HUMAN HEPATOCYTE CELL LINE” (Universite Claude Bernard Lyon I, priority 2009, published 2012):

Tests used:
[1] = MALDI-TOF mass spectrometry (negative mode, after ZrO2) of sulfation and phosphorylation of the FIX activation peptide; design: key: −: absence; (+): presence, weak intensity; +: presence, medium intensity; +++: presence, strong intensity; details: semi-quantitative; for abundance of activation peptide form D: deletion of alanine 194, free form; for abundance of activation peptide form D + P + S: deletion of alanine 194, phosphate and sulfate; for abundance of activation peptide form C: deletion of threonine 194, free form; for abundance of activation peptide form C + G: deletion of threonine 194, monosaccharides; for abundance of activation peptide form C + P + S: deletion of threonine 194, phosphate and sulfate; for abundance of activation peptide form B: variant T/A at 194, free form; for abundance of activation peptide form B + G: variant T/A at 194, monosaccharides; for abundance of activation peptide form B + P + S: variant T/A at 194, phosphate and sulfate; for abundance of activation peptide form B + P + S + G / abundance of activation peptide form B + P: variant T/A at 194, phosphate; for abundance of activation peptide form B + P + S + G / abundance of activation peptide form A + P + S + G: sulfate, monosaccharides; for abundance of activation peptide form B + S: variant T/A at 194, sulfate; for abundance of activation peptide form A / abundance of activation peptide form A + P + S: wild-type peptide [192-226]; for abundance of activation peptide form A: free form; for abundance of activation peptide form A + P + S: phosphate and sulfate; for abundance of activation peptide form A + P + S + G: wild-type peptide, phosphate
[2] = FIX from HepG2 cells with viral vectors, published by Chen et al.; ng of FIX/24 hours/10^6 cells; cited from earlier work
[3] = FIX concentration by Asserachrom IX:Ag ELISA in culture medium and cell extracts

Benefix: marketed recombinant FIX (Wyeth) synthesized by CHO cells stably transfected with the FIX cDNA
abundance of activation peptide form D [1]: −
abundance of activation peptide form D + P + S [1]: −
abundance of activation peptide form C [1]: +++
abundance of activation peptide form C + G [1]: +
abundance of activation peptide form C + P + S [1]: −
abundance of activation peptide form B [1]: +++
abundance of activation peptide form B + G [1]: +
abundance of activation peptide form B + P + S [1]: −
abundance of activation peptide form B + P + S + G [1]: −
abundance of activation peptide form B + P [1]: −
abundance of activation peptide form B + S [1]: (+)
abundance of activation peptide form A [1]: −
abundance of activation peptide form A + P + S [1]: −
abundance of activation peptide form A + P + S + G [1]: −

FIX/GCF9SN-MPSV: FIX produced with a viral vector in the HepG2 hepatocyte cell line by Chen et al., 1997
ELISA [2]: 76 ng/mL

FIX/GCNCF9: FIX produced with a viral vector in the HepG2 hepatocyte cell line by Chen et al., 1997
ELISA [2]: 128 ng/mL

FIXwt: recombinant human factor IX expressed in the human hepatocyte cell line Huh7 (transient, or stable clone Huh7-CD4) and secreted into the supernatant
ELISA ([3]; Huh7-CD4 clone, ng of FIX/24 hours/10^6 cells, five assays): 461 ± 12 ng/mL
intracellular FIX level (ELISA) ([3]; Huh7 cells transiently transfected with pcDNAFIXwt, 36 h): 0.05 μg/ml of cell lysate
abundance of activation peptide form D [1]: −
abundance of activation peptide form D + P + S [1]: −
abundance of activation peptide form C [1]: +++
abundance of activation peptide form C + G [1]: +
abundance of activation peptide form C + P + S [1]: −
abundance of activation peptide form B [1]: +++
abundance of activation peptide form B + G [1]: +
abundance of activation peptide form B + P + S [1]: +++
abundance of activation peptide form B + P + S + G [1]: (+)
abundance of activation peptide form B + P [1]: +++
abundance of activation peptide form B + S [1]: −
abundance of activation peptide form A [1]: −
abundance of activation peptide form A + P + S [1]: −
abundance of activation peptide form A + P + S + G [1]: −

Mononine: plasma FIX prepared from pools of human plasma, sold under the name Mononine, CSL Behring
abundance of activation peptide form D [1]: −
abundance of activation peptide form D + P + S [1]: +++
abundance of activation peptide form C [1]: −
abundance of activation peptide form C + G [1]: −
abundance of activation peptide form C + P + S [1]: +
abundance of activation peptide form B [1]: −
abundance of activation peptide form B + G [1]: −
abundance of activation peptide form B + P + S [1]: +
abundance of activation peptide form B + P + S + G [1]: −
abundance of activation peptide form B + P [1]: −
abundance of activation peptide form B + S [1]: −
abundance of activation peptide form A [1]: −
abundance of activation peptide form A + P + S [1]: +++
abundance of activation peptide form A + P + S + G [1]: +

Like-named read-outs stand apart in the source and are kept apart here.
